{
  "sequences": {"note": "Chains of the proteins cited; added tags and fusions are not shown.", "UniProt P11049": "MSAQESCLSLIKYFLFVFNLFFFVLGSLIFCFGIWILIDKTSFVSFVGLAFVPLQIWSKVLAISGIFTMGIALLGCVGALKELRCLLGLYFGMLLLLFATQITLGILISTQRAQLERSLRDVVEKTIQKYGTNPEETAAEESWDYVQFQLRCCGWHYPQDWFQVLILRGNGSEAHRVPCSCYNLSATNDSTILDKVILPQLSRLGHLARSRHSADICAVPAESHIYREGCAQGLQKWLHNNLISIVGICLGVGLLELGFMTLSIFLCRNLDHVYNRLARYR"},
  "source": "patent US20250333531A1",
  "binders": {"B1": {"name": "HC1 + LC1 with 14 CBM (antibody, human IgG1, V domains shown)", "VH": "QIQLVQSGAELVKPGASVKVSCKASGYSFTDYNMYWVKQAPGQRLEWIGYIDPYNGDTTYNQKFKGRATLTVDTSASTAYIELSSLRSEDTAVYYCARSPYGHYAMDYWGQGTLVTVSS", "VL": "DIQMTQSPSSLSTSVGDRVTITCKASQDVSTAVDWYQQKPGKSPKLLINWASTRHTGVPSRFSGSGSGTDYTLTISSMQPEDFATYYCRQHYSTPFTFGQGTKLEIK"}},
  "key": {"[1]": {"biological_target": "human CD37 (human) (UniProt P11049)", "experiment": "flow cytometry on Ramos cells (Example 4)"}, "[2]": {"biological_target": "human CD37 (human) (UniProt P11049)", "experiment": "flow cytometry on Ramos cells"}},
  "note": "No constants are given. Whether binding was seen depends on the method and setting. Some entries that bind do so weakly or less than the wild type.",
  "data": [
    {"binder": "B1", "values": [
      {"measurement": "binding", "setting": "[1]", "value": "binds"},
      {"measurement": "binding", "setting": "[2]", "value": "binds"}
    ]}
  ]
}
